Laboratory results published in patent US20240092890A1.
No constants are given. Whether binding was seen depends on the method and setting. Some results given as binding are weak or reduced against the parent protein; the word gives no strength.

How the values were obtained:
[1] = biological target: Ins 5 type mutant CALR protein on UT-7/TPO CALR Ins 5 cells (UniProt P27797); experiment: flow cytometry on UT-7/TPO CALR Ins 5 cells, antibody 5 ug/mL
[2] = biological target: Del 52 type mutant CALR protein on UT-7/TPO CALR Del 52 cells (UniProt P27797); experiment: flow cytometry on UT-7/TPO CALR Del 52 cells, antibody 5 ug/mL
[3] = biological target: peptide having cysteine added to the N-terminus of the amino acid sequence (…) contained in SEQ ID NO: 1; experiment: SPR (Biacore T200), antibody immobilised, peptide 1.25 to 20 nM (FIG. 5)
[4] = biological target: peptide having cysteine added to the N-terminus of the amino acid sequence (…) contained in SEQ ID NO: 1; experiment: SPR (Biacore T200), antibody immobilised by amine coupling (200 RU), peptide injected at 1.25, 2.5, 5, 10 and 20 nM
[5] = biological target: Ins 5 type mutant CALR protein on UT-7/TPO CALR Ins 5 cells (UniProt P27797); experiment: flow cytometry on UT-7/TPO CALR Ins 5 cells, antibody 5 ug/mL, anti-human Fc secondary antibody; on UT-7/TPO vec cells (panel a) the sample lies on the control [b]
[6] = biological target: Del 52 type mutant CALR protein on UT-7/TPO CALR Del 52 cells (UniProt P27797); experiment: flow cytometry on UT-7/TPO CALR Del 52 cells, antibody 5 ug/mL, anti-human Fc secondary antibody; on UT-7/TPO vec cells (panel a) the sample lies on the control [c]
[7] = biological target: T1, protein having an Fc region and a His-tag added to the N-terminus of SEQ ID NO: 1; experiment: BLItz biolayer interferometry (Tables 16-1 to 16-2)
T1 sequence: RRMMRTKMRMRRM

Measured: binding

B1: anti-cleaved mutant CALR-CD3 bispecific antibody made using a VH chain of SEQ ID NO: 2, a VL chain of SEQ ID NO: 3, a VH chain of SEQ ID NO: 8, and a VL chain … (bispecific antibody, V domains shown)
VH 1: QVQLQQSGAELVKPGSSVKISCKASGYTFTRNFIHWIKQQPGNGLEWIGWIFPGDGDTEYNQKFNGKATLTADKSSSTAYMQLSSLTSEDSAVYFCARGNYNYEYFDYWGQGVMVTVSS
VL 1: DIQMTQSPASLSASLGETVSIECLASEDIYSYLAWYQQKPGKSPQLLIFAANRLQDGVPSRFSGSGSGTQFSLKISGMQPEDEGDYFCLQGSKFPYTFGPGTKLELN
VH 2: QVQLVQSGGGVVQPGRSLRLSCKASGYTFTRYTMHWVRQAPGKGLEWIGYINPSRGYTNYNQKVKDRFTISRDNSKNTAFLQMDSLRPEDTGVYFCARYYDDHYSLDYWGQGTPVTVSS
VL 2: DIQMTQSPSSLSASVGDRVTITCSASSSVSYMNWYQQTPGKAPKRWIYDTSKLASGVPSRFSGSGSGTDYTFTISSLQPEDIATYYCQQWSSNPFTFGQGTKLQITR
binds: [1] | [2] | [3] | [4] | [5] | [6]

B2: Antibody 106 (bispecific antibody)
chain 1: QVQLVQSGAEVKKPGSSVKVSCKASGYTFTRNFIHWIRQAPGQGLEWIGWIFPGDADTEYNQKFSGRATITADKSTSTAYMELSSLRSEDTAVYYCARGNYNYEYFDYWGQGTMVTVSSASTKGPSVFPLAPSSKSTSGGTAALGCLVKDYFPEPVTVSWNSGALTSGVHTFPAVLQSSGLYSLSSVVTVPSSSLGTQTYICNVNHKPSNTKVDKRVEPKSCGGGGSQVQLVQSGGGVVQPGRSLRLSCKASGYTFTRYTMHWVRQAPGKGLEWIGYINPSRGYTNYNQKVKDRFTISRDNSKNTAFLQMDSLRPEDTGVYFCARYYDDHYSLDYWGQGTPVTVSSGGGGSGGGGSGGGGSDIQMTQSPSSLSASVGDRVTITCSASSSVSYMNWYQQTPGKAPKRWIYDTSKLASGVPSRFSGSGSGTDYTFTISSLQPEDIATYYCQQWSSNPFTFGQGTKLQITRHHHHHH
chain 2: DIQMTQSPSSLSASVGDRVTITCLASEDIYSYLAWYQQKPGKAPKLLIFAANRLQDGVPSRFSGSGSGTDFTLTISSLQPEDFATYYCLQGSKFPYTFGPGTKVDIKRTVAAPSVFIFPPSDEQLKSGTASVVCLLNNFYPREAKVQWKVDNALQSGNSQESVTEQDSKDSTYSLSSTLTLSKADYEKHKVYACEVTHQGLSSPVTKSFNRGEC
binds: [7]
